# Experimental data taken from PubChem BioAssay AID2685 (National Center for Advancing Translational Sciences (NCATS), 2010).
# The whole screen tested about 320,000 compounds, of which about 2,100 (0.66%) were called active. The shares of active, inactive and inconclusive entries below differ from those in the screen. The call rests on the fitted dose curve; in most records, active means well fitted inhibition curve with a large enough effect in the signal ratio, with a control signal flat (not every such curve was filed as active); inconclusive means small, poorly fitted or top-dose-only effect, or effect the other way, or a change in a side signal; inactive means flat fitted curve, though single readings scatter; the % refers to the signal ratio. Where the call is inconclusive, the potency comes from a doubtful curve fit.
# Experiment: qHTS Assay for Lipid Storage Modulators in Drosophila S3 Cells
# Settings: BODIPY lipid droplet fluorescence, 18-24 h, cells fed with added oleic acid; lipid storage change, negative = inhibition: at 46.1 µM (top of the series) unless noted
# Summary of the method: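 Drosophila S3 cells loaded with oleic acid (400 uM, as added) and compounds at several concentrations; lipid droplets imaged by 488-nm laser-scanning cytometry, 500–530 nm intensity and object ratio to cell channel. Percent activity normalized to 20 uM Triacsin C.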
# On the % scale 0 is the no-effect control and ±100 the full control effect; potency means the concentration at half of the fitted maximal effect.
SMILES,"lipid storage change, negative = inhibition",Potency
COC(=O)C(Cc1ccc(O)cc1)NC(=O)CCc1nc2ccccc2s1 (centres undefined),inconclusive: 38.2%,–
COc1ccc(Nc2c3c(nc4ccc(C)cc24)CCC3)cc1,–,active: 20600 nM
Cc1cccc(N(Cc2ccccc2)C(=O)CN2C(=O)NC3(CCCC3)C2=O)c1,inconclusive: 6.82%,–
O=C(COC(=O)C1CCN(S(=O)(=O)c2ccccc2C(F)(F)F)CC1)NCc1ccc(F)cc1,inconclusive: 5.74%,–
O=C(c1cccc(NS(=O)(=O)c2ccccc2)c1)N1CCN(c2ccccc2)CC1,inconclusive,–
COc1ccc(-n2nc3c(c2NC(=O)c2ccc4c(c2)OCO4)CS(=O)(=O)C3)cc1,–,"inconclusive: 25900 nM [activator, single point]"
O=C(Nc1ccccc1)C1CCCN1S(=O)(=O)c1cccs1 (centres undefined),inconclusive,–
COc1ccc(-c2noc(CCC(=O)NCCN(C)Cc3ccccc3)n2)cc1,inconclusive: -7.39%,–
O=C(CSc1nnc2ccccn12)Nc1ccc2c(c1)OCO2,inconclusive: 28.6%,–
COc1ccc(CN(C)CC(=O)N2CCc3ccccc3C2)cc1,inconclusive: 127%,–
Cn1nnc2cc(C(=O)NCc3ccco3)ccc21,inconclusive: 0.291%,–
CC(NC(=O)CSc1nc2c(c(C(F)(F)F)n1)CCc1ccccc1-2)c1ccccc1 (centres undefined),–,"inconclusive: 29100 nM [falling, single point]"
COc1ccc(CCNC(=O)c2ccc(CS(=O)Cc3ccc(C)cc3)o2)cc1OC (centres undefined),inconclusive: -0.0735%,–
Cc1ccc(S(=O)(=O)N2CCN(C(=O)CC(C)n3nc(C)c(Cl)c3C)CC2)cc1 (centres undefined),inconclusive: -14%,–
Cc1ccc(CN2CCNC(=O)C2CC(=O)NCc2csc(C(C)C)n2)cc1 (centres undefined),–,"inconclusive: 231 nM [activator, full curve, poor fit]"
CC1CCN(C(=O)Cn2nnc(-c3ccc(N)cc3)n2)CC1,inconclusive: 16.1%,–
C=CCNc1oc(Cc2cccc3ccccc23)nc1C#N,inconclusive: 37.7%,–
CCc1ccc([C@@H]2CC=C(C(=O)O)[C@H](c3ccccc3)N2S(=O)(=O)c2ccc(C)cc2)cc1,–,"inconclusive: 651 nM [activator, full curve]"
N#CC(C#N)=C1C(=O)N(CCN2CCCCC2)c2ccccc21,inconclusive: 41.4%,–
CCc1cc(=O)oc2cc(OCC(=O)NC3CC(C)(C)NC(C)(C)C3)ccc12,inconclusive: 4.25%,–

SMILES,"lipid storage change, negative = inhibition",Potency
COc1ccc(CCN2CN(S(=O)(=O)c3ccccc3)c3nc4ccccc4nc32)cc1OC,inconclusive: 25.8%,–
O=C(Cn1ncc2c1-c1ccccc1OC2)N1CCN(Cc2ccccc2)CC1,–,"inconclusive: 6510 nM [activator, single point]"
COc1ccc(N2C(=O)C(Cl)=C(Nc3ccccc3O)C2=O)cc1,–,"inconclusive: 23.1 nM [falling, full curve, poor fit]"
O=C(NCc1ccc(N2CCCC2=O)cc1)c1ccc(F)cc1,inactive: 0.839%,–
CN1CCN(C(=O)N2c3ccccc3C=Cc3ccccc32)CC1,–,"inconclusive: 1160 nM [activator, full curve]"
COc1cc2nc(-c3ccc(Br)o3)oc(=O)c2cc1OC,–,"inconclusive: 920 nM [activator, partial curve, poor fit]"
Cc1ccc(-n2nc(CN3CCOCC3)c(-c3ccccc3)c2N)cc1Cl,inconclusive: -53.5%,–
Cc1cccnc1NC(=O)CSc1ncnc2sc(C)c(C)c12,inconclusive,–
CSCc1nc2scc(-c3ccccc3)c2c(=O)[nH]1,–,"inconclusive: 29100 nM [rising, single point]"
N#Cc1ccccc1S(=O)(=O)N1CCN(CC(O)c2ccccc2)CC1 (centres undefined),inconclusive: -15.8%,–
COC(=O)c1ccc(N2CCN(c3ccccc3)CC2)c(N)c1,inactive: 0.528%,–
CC1CC1c1ccc(/C=C(\C#N)C(=O)Nc2cc(Cl)ccc2Cl)o1 (centres undefined),inconclusive: 10.8%,–
CSc1ccc(S(=O)(=O)NCC(=O)OC(C)C(=O)NCc2ccccc2)cc1[N+](=O)[O-] (centres undefined),–,"inconclusive: 1640 nM [falling, full curve, poor fit]"
COCCSc1nc(N)c(NC(=O)c2ccco2)c(=O)[nH]1,inactive: -9.67%,–
O=C(NNC(=O)c1cccs1)c1ccc(F)cc1,inconclusive: 105%,–
O=C(C1CCCO1)N1CCN(c2c3c(nc4cc(-c5ccc(F)cc5)nn24)CCC3)CC1 (centres undefined),inconclusive: 15.5%,–
NC(=O)C1CCN(C(=O)COc2ccc3c4c(c(=O)oc3c2)CCCC4)CC1,–,"inconclusive: 4.1 nM [activator, full curve, poor fit]"
O=C(CNc1cc(S(=O)(=O)N2CCOCC2)ccc1N1CCCC1)NCc1ccco1,inconclusive: 32.9%,–
Cc1ccccc1NC(=O)CSc1nnnn1C,inconclusive: 19.7%,–

# Quoted from the listing:
# Entry for `CC1CC1c1ccc(/C=C(\C#N)C(=O)Nc2cc(Cl)ccc2Cl)o1` (centres undefined) under lipid storage change, negative = inhibition: inconclusive: 10.8%
# Entry for `COc1cc2nc(-c3ccc(Br)o3)oc(=O)c2cc1OC` under Potency: inconclusive: 920 nM [activator, partial curve, poor fit]
# Entry for `Cc1ccccc1NC(=O)CSc1nnnn1C` under lipid storage change, negative = inhibition: inconclusive: 19.7%
